According to US5041238A, “o,o'-Bridged oligophenylene laser dyes, dyestuff lasers and methods of lasing therewith” (Exciton Chemical Company, priority 1988, dated 1991):

Test: Lasing wavelength maximum and output energy, pumped at 308 nm by xenon chloride excimer laser
Details: 308 nm XeCl excimer laser; for Output Energy: Table II

CCCC1(CCC)c2ccccc2-c2ccc(-c3ccc4c(c3)C(CCC)(CCC)c3ccccc3-4)cc21 [9,9,9',9'-tetrapropyl-2,2'-bifluorene]
Relative Output Energy (Table III, dioxane): 7.6 units

c1ccc2c(c1)Cc1cc(-c3ccc4c(c3)Cc3ccccc3-4)ccc1-2 [2,2'-bifluorene]
Output Energy (dioxane/methanol): 3.1 units

CC(C)(C)c1ccc(-c2nnc(-c3ccc(-c4ccccc4)cc3)o2)cc1 [Butyl-PBD, reference compound]
Output Energy (ethanol/toluene): 1.9 units

c1ccc(-c2ccc(-c3ccccc3)cc2)cc1 [p-terphenyl, reference compound]
Output Energy (dioxane): 2.6 units
